At least one structure is not confirmed: it was looked up by name or label, or the drawing left a doubt. Some of these results come from one statement about several compounds together.
Legend:
[1] = cited from earlier work
[2] = tested on: 13 different nucleic acid structures; experiment: Competition dialysis, whole panel; assay type: binding; conditions: control; 100, 150, 200 mM Na+
Source text: Disclosed is the use of fluorescent aminosugar probes such as F-neo (42a) to probe a variety of nucleic acid targets. Competition dialysis was used as a nucleic acid screening technique to illustrate the binding of F-neo (42a) to different nucleic acid structures.
Competition dialysis studies using a fluorescein-neomycin conjugate (F-neo (42a)). […] Comparative binding of F-neo (42a) to 13 different nucleic acid structures was examined which included single strand nucleic acids [poly(dT), poly(A), poly(U)], duplexes [poly(dA).poly(dT), poly(rA).poly(dT), poly(rA).poly(rU), poly(dA).poly(rU), poly(dG).poly(dC), calf thymus], triplexes [poly(dA).2poly(dT), poly(rA).2poly(rU)], i-motif (polydC) and 16S A-site rRNA (SEQ ID No. 1). The amount of F-neo (42a) bound to each nucleic acid is shown as a bar graph in FIG. 13. Because all nucleic acids are dialyzed simultaneously in the same ligand solution, the amount of bound F-neo (42a) is directly proportional to its affinity for each nucleic acid. […] 200 μL of different nucleic acids (7.5 μM per monomeric unit of each polymer) was dialyzed for 72 h with 400 mL 100 nM ligand in 6 mM Na2HPO4, 2 mM NaH2PO4, 1 mM Na2EDTA, pH 7.0 and various Na+ concentrations as indicated.
The binding of F-neo (42a) to nucleic acids is affected by the salt concentration. […]

Row | Compound | solubility in water (solutions that can be prepared) [1] | binding to nucleic acids in competition dialysis [2]
1 | CCOc1ccc(-c2nc3ccc(-c4nc5ccc(N6CCN(C)CC6)cc5[nH]4)cc3[nH]2)cc1 [Hoechst 33342] | up to 2% | 
2 | O=C1OC2(c3ccc(O)cc3Oc3cc(O)ccc32)c2ccccc21 [fluorescein, reference compound] |  | negligible binding

— patent US10203334B2, “Methods and compositions related to nucleic acid binding assays” (Nubad, LLC, priority 2012, dated 2019)
